In publication PMC10479894 one finds binding data, which are given here for 1 substance.

Protein sequences, listed by entry. Tags and fused reporters are not part of them. Residues count along the entry.
UniProt Q5AL03, residues 21-895: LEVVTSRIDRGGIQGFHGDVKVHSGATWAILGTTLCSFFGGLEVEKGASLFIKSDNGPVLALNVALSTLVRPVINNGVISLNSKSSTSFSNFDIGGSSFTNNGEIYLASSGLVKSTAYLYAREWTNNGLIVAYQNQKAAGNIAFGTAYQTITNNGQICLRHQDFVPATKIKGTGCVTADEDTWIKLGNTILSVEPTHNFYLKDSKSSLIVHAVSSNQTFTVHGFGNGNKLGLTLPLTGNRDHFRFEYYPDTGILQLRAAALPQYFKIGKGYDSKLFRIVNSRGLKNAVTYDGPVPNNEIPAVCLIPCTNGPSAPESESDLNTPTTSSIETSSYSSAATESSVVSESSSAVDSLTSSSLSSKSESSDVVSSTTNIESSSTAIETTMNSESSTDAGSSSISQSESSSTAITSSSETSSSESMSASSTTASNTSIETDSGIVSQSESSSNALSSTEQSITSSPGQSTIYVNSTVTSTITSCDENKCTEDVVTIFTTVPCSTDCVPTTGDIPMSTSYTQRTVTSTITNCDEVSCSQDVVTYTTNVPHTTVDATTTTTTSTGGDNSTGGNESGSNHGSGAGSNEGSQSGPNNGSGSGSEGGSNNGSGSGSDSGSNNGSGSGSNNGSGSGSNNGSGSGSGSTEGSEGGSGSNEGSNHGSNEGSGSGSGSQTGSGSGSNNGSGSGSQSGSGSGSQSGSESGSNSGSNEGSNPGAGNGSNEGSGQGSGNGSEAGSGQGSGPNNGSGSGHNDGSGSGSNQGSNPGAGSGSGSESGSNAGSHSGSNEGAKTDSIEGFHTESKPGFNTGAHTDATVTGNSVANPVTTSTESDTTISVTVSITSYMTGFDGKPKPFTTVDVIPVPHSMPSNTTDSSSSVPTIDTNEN
UniProt Q59L12, residues 18-1134: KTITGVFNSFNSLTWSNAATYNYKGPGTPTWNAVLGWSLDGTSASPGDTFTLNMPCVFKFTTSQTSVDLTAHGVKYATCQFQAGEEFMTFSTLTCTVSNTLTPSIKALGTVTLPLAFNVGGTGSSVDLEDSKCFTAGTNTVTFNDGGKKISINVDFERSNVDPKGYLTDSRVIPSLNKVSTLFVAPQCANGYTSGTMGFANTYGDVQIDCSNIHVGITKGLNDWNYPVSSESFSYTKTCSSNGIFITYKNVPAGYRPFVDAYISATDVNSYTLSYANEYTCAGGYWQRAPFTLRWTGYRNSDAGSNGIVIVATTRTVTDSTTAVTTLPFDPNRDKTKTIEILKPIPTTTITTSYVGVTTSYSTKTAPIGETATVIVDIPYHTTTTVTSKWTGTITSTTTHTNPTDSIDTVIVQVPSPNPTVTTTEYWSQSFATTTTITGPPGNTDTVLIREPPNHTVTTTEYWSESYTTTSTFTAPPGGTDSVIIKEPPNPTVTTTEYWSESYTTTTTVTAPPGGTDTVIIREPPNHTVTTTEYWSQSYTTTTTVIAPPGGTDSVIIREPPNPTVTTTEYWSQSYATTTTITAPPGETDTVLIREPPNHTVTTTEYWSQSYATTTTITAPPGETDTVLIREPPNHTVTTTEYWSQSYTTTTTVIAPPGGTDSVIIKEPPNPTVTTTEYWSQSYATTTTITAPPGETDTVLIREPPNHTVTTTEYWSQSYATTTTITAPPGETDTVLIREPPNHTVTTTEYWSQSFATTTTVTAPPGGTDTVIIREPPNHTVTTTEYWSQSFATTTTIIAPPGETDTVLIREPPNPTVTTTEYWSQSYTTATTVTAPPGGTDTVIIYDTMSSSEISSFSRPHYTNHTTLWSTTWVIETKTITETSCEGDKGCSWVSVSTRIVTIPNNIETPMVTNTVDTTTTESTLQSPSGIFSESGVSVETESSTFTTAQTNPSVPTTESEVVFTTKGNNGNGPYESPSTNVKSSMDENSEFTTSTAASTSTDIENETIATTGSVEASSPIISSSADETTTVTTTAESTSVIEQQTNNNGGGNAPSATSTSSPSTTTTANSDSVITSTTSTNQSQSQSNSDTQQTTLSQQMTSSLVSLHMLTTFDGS
UniProt P08581, residues 25-932: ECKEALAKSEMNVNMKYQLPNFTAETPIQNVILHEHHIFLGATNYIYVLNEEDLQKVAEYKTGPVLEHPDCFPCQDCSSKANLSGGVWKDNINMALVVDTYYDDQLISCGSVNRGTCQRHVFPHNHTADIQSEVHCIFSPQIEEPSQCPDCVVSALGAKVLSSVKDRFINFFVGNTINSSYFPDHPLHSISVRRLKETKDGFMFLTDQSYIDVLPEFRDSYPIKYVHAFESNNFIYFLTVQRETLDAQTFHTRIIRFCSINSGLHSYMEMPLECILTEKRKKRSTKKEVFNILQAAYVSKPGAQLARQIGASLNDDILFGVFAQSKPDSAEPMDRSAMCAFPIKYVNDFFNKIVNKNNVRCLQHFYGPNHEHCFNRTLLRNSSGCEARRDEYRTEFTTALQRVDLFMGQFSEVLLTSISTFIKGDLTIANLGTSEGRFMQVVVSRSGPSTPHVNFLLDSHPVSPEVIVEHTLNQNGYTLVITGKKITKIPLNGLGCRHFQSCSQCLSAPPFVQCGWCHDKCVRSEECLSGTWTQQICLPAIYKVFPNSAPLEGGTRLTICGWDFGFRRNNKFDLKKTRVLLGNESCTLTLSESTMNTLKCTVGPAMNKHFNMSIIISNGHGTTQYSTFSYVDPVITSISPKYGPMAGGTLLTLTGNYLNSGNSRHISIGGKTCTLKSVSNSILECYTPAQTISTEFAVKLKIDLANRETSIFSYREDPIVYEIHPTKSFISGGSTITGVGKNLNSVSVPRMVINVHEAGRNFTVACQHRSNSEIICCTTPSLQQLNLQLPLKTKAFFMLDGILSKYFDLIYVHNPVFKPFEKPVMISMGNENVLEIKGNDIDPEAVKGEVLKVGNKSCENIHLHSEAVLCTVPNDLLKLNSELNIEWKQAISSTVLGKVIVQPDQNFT

No constants are given. Whether binding was seen depends on the method and setting. Some binding calls cover weakened binding; strength is not graded here.

Assay [1] concerns the target C. albicans Hyr1 (C. albicans) (UniProt Q5AL03). The assay is described as follows: far-Western, overlay or dot blot; 15 ug of proteins released by regenerating C. albicans protoplasts, non-reducing/non-denaturing SDS-PAGE, PVDF membrane, probed with recombinant c-Met and an anti human c-Met antibody; the matching band of a parallel gel was excised and its proteins identified by tandem mass spectrometry; only the binder purified.

Assay [2] addresses C. albicans Als3 (C. albicans) (UniProt Q59L12). The description is as above.

In the case of “recombinant c-Met (from UniProt P08581 25-932) (receptor)”, the binding result in assay [1] and in assay [2] was “binds” throughout.
